Test results published in US20080292620A1.
Results are given in words; binding and its absence hold for the method and conditions named. Some results given as binding are weak or reduced against the parent protein; the word gives no strength.

Protein sequences, listed by entry. Tags and fused reporters are not part of them. Lines headed by an entry give the natural chain unless they say otherwise; changes in a name come on top.
UniProt P16471: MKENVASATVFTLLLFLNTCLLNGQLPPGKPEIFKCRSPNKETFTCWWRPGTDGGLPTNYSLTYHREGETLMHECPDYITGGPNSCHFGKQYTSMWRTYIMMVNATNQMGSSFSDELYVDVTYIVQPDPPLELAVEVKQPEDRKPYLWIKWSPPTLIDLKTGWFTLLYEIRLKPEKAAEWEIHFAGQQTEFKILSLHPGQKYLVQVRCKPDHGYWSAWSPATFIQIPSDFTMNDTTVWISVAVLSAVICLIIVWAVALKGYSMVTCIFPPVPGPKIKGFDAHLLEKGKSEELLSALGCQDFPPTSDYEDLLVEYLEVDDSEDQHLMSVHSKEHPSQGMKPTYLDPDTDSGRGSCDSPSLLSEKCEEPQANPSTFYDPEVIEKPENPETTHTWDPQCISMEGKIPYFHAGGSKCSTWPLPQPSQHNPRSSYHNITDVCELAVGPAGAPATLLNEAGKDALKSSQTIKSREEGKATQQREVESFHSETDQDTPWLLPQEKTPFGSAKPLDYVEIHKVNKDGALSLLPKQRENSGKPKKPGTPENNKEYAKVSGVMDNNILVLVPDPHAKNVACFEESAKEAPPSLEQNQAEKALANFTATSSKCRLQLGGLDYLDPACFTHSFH

T1: murine PRLR ECD (mouse) (UniProt Q08501)
T1 sequence (looked up): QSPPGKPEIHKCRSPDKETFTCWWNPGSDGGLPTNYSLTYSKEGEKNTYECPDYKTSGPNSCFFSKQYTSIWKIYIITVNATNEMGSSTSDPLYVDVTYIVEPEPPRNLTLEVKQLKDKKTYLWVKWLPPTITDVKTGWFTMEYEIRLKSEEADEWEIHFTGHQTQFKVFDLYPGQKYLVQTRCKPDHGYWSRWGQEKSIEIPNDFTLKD

T2: rat PRLR ECD (rat) (UniProt P05710)
T2 sequence (looked up): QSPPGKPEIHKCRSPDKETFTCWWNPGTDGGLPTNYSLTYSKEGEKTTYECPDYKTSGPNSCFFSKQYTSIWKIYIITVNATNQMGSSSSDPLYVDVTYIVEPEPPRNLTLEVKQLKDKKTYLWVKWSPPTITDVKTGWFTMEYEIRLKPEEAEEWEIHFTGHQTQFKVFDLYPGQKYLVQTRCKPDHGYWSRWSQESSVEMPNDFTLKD


Experiments:
[1] = target: cynomolgus PRLR ECD (cynomolgus); experiment: Biacore SPR, antibody covalently immobilized on CM4 chip
murine PRLR ECD (mouse) = target: T1, murine PRLR ECD (mouse); experiment: as above
rat PRLR ECD (rat) = target: T2, rat PRLR ECD (rat); experiment: as above
[2] = target: recombinant extracellular domain (ECD) of the human prolactin receptor (PRLR) (human) (UniProt P16471); experiment: Biacore SPR
[3] = target: recombinant extracellular domain (ECD) of the human prolactin receptor (PRLR) (human) (UniProt P16471); experiment: Biacore SPR, antibody covalently immobilized on CM4 chip

| binding [1] | binding (murine PRLR ECD (mouse)) | binding (rat PRLR ECD (rat)) | binding [2] | binding [3] | Binder |
| --- | --- | --- | --- | --- | --- |
| binds | binds | binds | – | – | he.06.642-2 (antibody, V domains shown) VH: EVQLVESGGGLVQPGGSLRLSCAVSGFTFSSYGMSWVRQAPGKGLEWVATVSSGGTYTYYPDSVKGRFTISRDNSKNTLYLQMNSLRAEDTAVYYCARHRGNYYATYYYAMDYWGQGTLVTVSS VL: DIVLTQSPDSLAVSLGERATINCKASKSVSTSGYTYMHWYQQKPGQPPKLLIYLASNRESGVPDRFSGSGSGTDFTLTISPVQAEDVATYYCQHSGELPPSFGQGTKLEIK |
| binds | – | – | binds | binds | he.06.275-4 (antibody, V domains shown) VH: QVQLQESGPGLVKPSQTLSLTCTVSGYSITSDYAWNWIRQFPGKGLEWMGYISYSGSTSYNPSLKSRITISRDTSKNQFSLQLNSVTAADTAVYFCARDYGYVFDYWGQGTTLTVSS VL: DVQITQSPSSLSASPGDRITLTCRASKNIYKYLAWYQEKPGKANKLLIYSGSTLHSGIPSRFSGSGSGTDFTLTISSLQPEDFAMYYCQQHNDYPYTFGQGTKLEIK |
| – | – | – | binds | – | he.06.275-2 (antibody, V domains shown) VH: QVQLQESGPGLVKPSQTLSLTCTVSGYSITSDYAWNWIRQFPGKGLEWMGYISYSGSTSYNPSLKSRITISRDTSKNQFSLQLNSVTAADTAVYFCARDYGYVFDYWGQGTTLTVSS VL: DVQITQSPSSLSASPGDRITLTCRASKNIYKYLAWYQEKPGKTNNLLIYSGSTLHSGIPSRFSGSGSGTDFTLTISSLQPEDFAMYYCQQHNDYPYTFGQGTKLEIK |
| – | – | – | binds | – | he.06.275-3 (antibody, V domains shown) VH: DVQLQESGPGLVKPSQTLSLTCTVTGYSITSDYAWNWIRQFPGKKLEWMGYISYSGSTSYNPSLKSRITISRDTSKNQFSLQLNSVTAADTATYFCARDYGYVFDYWGQGTTLTVSS VL: DVQITQSPSSLSASPGDRITLTCRASKNIYKYLAWYQEKPGKANKLLIYSGSTLHSGIPSRFSGSGSGTDFTLTISSLQPEDFAMYYCQQHNDYPYTFGQGTKLEIK |
